Our source for the z-score values is PubChem BioAssay AID1347423 (Functional Genomics Laboratory (NCATS/FGL), 2020).

About 210 (0.4%) of roughly 52,000 sequences were called active.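 Rule for the calls: active = gene whose silencing raises cell survival under the drug, median off-target-corrected z-score across its silencing RNAs 2 or more; inactive = the rest.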 The list shows a part of the results.

A short description of this test: Resistance to Poly (ADP-Ribose) Polymerase inhibitor: Gene Identification via Genome-wide siRNA Screen. As to conditions: mouse BRCA2 R2336H ES cells, olaparib, CellTiter-Glo viability; stronger effect = higher value. A digest of the protocol: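 Mouse BRCA2 R2336H ES cells were reverse-transfected with siRNA (20 nM final), treated at 48 h with 500 nM olaparib, and read by CellTiter-Glo after 72 h. Scores: MAD-based z per siRNA, median per gene, seed off-target correction.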
For orientation: In ATP-based viability assays light output follows the ATP content of the culture.
Regarding “GGGCUUUGAAUACAUCCUGTT against 2610524G07Rik”, the z-score is inactive: 0.218.
GCCCUACGCUCGAAUGGAATT against Il17b: the z-score is inactive: -0.66.
The value for GGAGGUCACCCUCAAGAUGTT against Gjb4 was inactive: -0.479; that for GGAUUCUCUGUAGCUCAAATT against Magea5 was inactive: -2.59.
The value for “GGACACUGUACUCAAACCUTT against C230078M14” was inactive: 0.624; that for GCCUUUUUAAAGCUCAAGUTT against LOC434179 was inactive: 0.972; that for GCGAACAACCACGUUUUUCTT against Ddx18 was inactive: 0.583.
The value for GGGAUUCUUUAAGAGCUCUTT against Prdx2 was inactive: 0.782; that for GGGAAGCAUGCAGAACAGCTT against Parg was inactive: 0.655.
With GGAAUACUAUGUUGAUUACTT against Lrrtm1, the z-score was inactive: 0.0161.
The value for CGAAUUUGGCUUCAGAUGATT against Ppp2r1b was inactive: 0.593; that for GGACUCAUGAUUACAGCACTT against Tas2r134 was inactive: 1.06; that for CCUAAUUAUGUCAAGAUGATT against Foxm1 was inactive: -0.428.
Consider GGCAAUAACCACAUGAAAGTT against Sgtb, for which the z-score is inactive: 1.3.
As for CGGCUUAUGAGUUAAAGACTT against Rad51l1, the z-score is inactive: -1.94.
As to GGCGAUGUGAUGGAUGUAGTT against Hira, the z-score is inactive: -1.52.
The result for CCAAAGGUAUAUAGAGGUUTT against Plce1 reads inactive: -0.791.
The result for CCGAGUAUAUCUAUAAUAGTT against Ear14 reads inactive: -1.62.
The value for GGCUCUCGUUAAAUACUGGTT against Pik3r4 was inactive: 1.04; that for GGUUCAGACCAUCUUGGAATT against Bag3 was inactive: -2.72.
“GCCUUCUGGCAAGAAUCUUTT against 2310040M23Rik”: the z-score was inactive: 0.569.
The value for “GAUGAUCUUUCUUUCCAUCTT against D630024D12Rik” was inactive: 0.0515; that for CGAUCGAAAUCAAGUCGAUTT against 9-Sep was inactive: -0.907.
The value for GGUCAUUGGUCGCUGGUCATT against Gzmm was inactive: 1.22; that for GCAAGUGUCUCAAGUGCAGTT against Lhx3 was inactive: -0.64.
The result for “GGACCUUAUUUGAAGCCUATT against D330012D11Rik” reads inactive: -2.09.
Regarding GCAAAGUGGAUAUAGUGUCTT against Gprin1, the z-score is inactive: 0.00305.
For the sequence GGAAGUGUUAUUAACCAAGTT against Rfxdc1, the z-score was inactive: 0.0539.
The result for “CGGAAUGAACAUCAUGCUCTT against 1700027A23Rik” reads inactive: 0.388; that for GGAGAAAUAAAUGACUUGCTT against Zswim2, inactive: 0.115; that for GCAACUAGUUAGUGCCUCCTT against Klf15, inactive: 1.
For the sequence GCGCAUCAAUCUUGGAGGATT against Actr5, the z-score was inactive: 0.719.
For “GGAAUUCCAAGUCAUUAUUTT against B230340J04Rik”, the z-score is inactive: 0.179.
The value for “GGGUCAGGACUCCUUUAUGTT against 2700083B06Rik” was inactive: 0.158.
The result for GGUAGAGGAUGACUUCCUGTT against Ptpn5 reads inactive: 0.121; that for GGGAUUCGACAGCAGAUCATT against H2-M10.4, inactive: -3.67.
With “GGAUUAAUUAAUACUUGGCTT against 3010033P07Rik”, the z-score was inactive: 0.03.
The result for “GGCUAAGUACGUCAAGAGCTT against 5430432M24Rik” reads inactive: 1.63; that for “CGUAUCGCUGUUCAUGUUUTT against 5330438D12Rik”, inactive: 0.244.
The value for GGCGAUGAUUAUAAGAUUATT against Copa was inactive: -1.3; that for GGAGAUCUACAUGACCUUCTT against Rgs10 was inactive: -0.745.
The result for CGUACUCUGCCAAUGCUUCTT against Sec24b reads inactive: 1.18.
Regarding GGAGAUGCUGUUCUUUCCGTT against Casc3, the z-score was inactive: 1.71.
The value for GGAUGAGAAUGGUUAUACUTT against Asz1 was inactive: -0.751; that for CCUAUGCUAUGUAGUUUAATT against Adam21 was active: 0.555; that for GGACAUUGACCUAAGCCCUTT against Pcnx was inactive: -0.353.
The value for “CCUUCAGAGUUUCAGACAATT against 4931417G12Rik” was inactive: 0.272; that for GCAAGACAAUCGAAGAAUATT against Pgm2 was inactive: -1.33.
The value for GGUUGUUACCUUACUGUACTT against Olfr532 was inactive: 2.61; that for GGAACAUUCUAGAAUCUGUTT against Rps6kb2 was inactive: -0.608.
Take CGAUGACAUCGUGUUUGAGTT against Arrb2: the z-score is inactive: 1.19.
In the case of GGUCAUCCUUCUAUUCUCUTT against Olfr648, the z-score is inactive: -0.285.
For the sequence GGUGUUCCACCAGGAUCACTT against Clca1, the z-score is inactive: 0.46.
Consider “GGUUCGGUAUUCUGAUACATT against 1700028K03Rik”, for which the z-score was inactive: -0.745.
The value for GGAAUGAGUCCUCAAUUAUTT against Car1 was inactive: 2.45; that for GGAGUCAGUAAAGAUCCUCTT against Tgif2 was inactive: 0.837; that for “GGAAAACAAGACAGUUUCGTT against 1700012B15Rik” was inactive: 0.453.
Take “GCUUCCUGAUGGACGGACUTT against 1700029I08Rik”: the z-score was inactive: -1.36.
The result for GGAUCUUCCUCAUCACCCUTT against Ube4a reads inactive: 0.463; that for GGAAAAGGAAGAUUCUUGATT against Znrd1, inactive: -0.871.
The result for GCUGACAGUAGGAAACUAATT against Dmp1 reads inactive: 0.219; that for GGAUGCAAUGACCCAAUUUTT against Ecm1, inactive: 0.369; that for GGGUUACCGUAAGCUGUUGTT against Uts2r, inactive: 1.03.
The result for GGCUUGACAUCUAGGGACATT against Dbp reads inactive: -1.08; that for “GGGAAUGUUCAUACAAUAGTT against 2810481F14Rik”, inactive: -0.08.
Regarding CCUAUAGCCGCCUUAUGGATT against Arhgef15, the z-score was inactive: 0.0737.
